# Assay results from US20230172897A1, “METHODS OF TREATING BREAST CANCERS WITH SELECTIVE ANDROGEN RECEPTOR MODULATORS AND ADDITIONAL THERAPEUTIC AGENTS” (VERU, INC., priority 2021, published 2023).
# System: ER-positive metastatic breast cancer
# Test: Phase 2 clinical trial (G200801), 9 mg daily
# Format: in vivo, women
# Procedure: The goal of this study was to determine the importance of the AR status as a therapeutic target in women with ER-positive metastatic breast cancer (MBC) that had previously responded to hormone therapy. The treatment was continued until disease progression (PD).
# CBR will be correlated with AR status of metastatic tumor biopsy.
# Serum prostate specific antigen (PSA) was evaluated as a biomarker of AR activity.
# Female subjects with ER-positive metastatic breast cancer who have previously been treated with up to 3 prior hormonal therapies for the treatment of breast cancer. […]
# Measurable and non-measurable lesions (primary and/or metastatic) were identified and assessed by a modified Response Evaluation Criteria In Solid Tumors (RECIST 1.1) classification over the course of this study (described in detail below).
# The primary efficacy analysis was the clinical benefit in subjects with AR-positive breast cancer at 6 months as measured by a modified Response Evaluation Criteria In Solid Tumors (RECIST 1.1) classification. Key secondary endpoints of clinical benefit in all subjects and AR-negative subjects, as well as objective response rate, progression free survival, time to progression, duration of response, incidence of SREs, and time to first SRE in subsets based on AR status (i.e., all subjects, AR-positive subjects, and AR-negative subjects) was also assessed. […]
structure (smiles),measurement,value
"C[C@](O)(COc1ccc(C#N)cc1)C(=O)Nc1ccc(C#N)c(C(F)(F)F)c1 [Formula IX, (S)—N-(4-Cyano-3-(trifluoromethyl)phenyl)-3-(4-cyanophenoxy)-2-hydroxy-2-methylpropanamide]",biomarkers of bone turnover,No useful trends
same,breast cancer biomarker CA 27-29,did not demonstrate any useful trends
